Results of single-concentration screens

Amino acid sequences for entries named in this document (tags omitted). Residues count along the entry.
UniProt Q8IDJ8, 1-583: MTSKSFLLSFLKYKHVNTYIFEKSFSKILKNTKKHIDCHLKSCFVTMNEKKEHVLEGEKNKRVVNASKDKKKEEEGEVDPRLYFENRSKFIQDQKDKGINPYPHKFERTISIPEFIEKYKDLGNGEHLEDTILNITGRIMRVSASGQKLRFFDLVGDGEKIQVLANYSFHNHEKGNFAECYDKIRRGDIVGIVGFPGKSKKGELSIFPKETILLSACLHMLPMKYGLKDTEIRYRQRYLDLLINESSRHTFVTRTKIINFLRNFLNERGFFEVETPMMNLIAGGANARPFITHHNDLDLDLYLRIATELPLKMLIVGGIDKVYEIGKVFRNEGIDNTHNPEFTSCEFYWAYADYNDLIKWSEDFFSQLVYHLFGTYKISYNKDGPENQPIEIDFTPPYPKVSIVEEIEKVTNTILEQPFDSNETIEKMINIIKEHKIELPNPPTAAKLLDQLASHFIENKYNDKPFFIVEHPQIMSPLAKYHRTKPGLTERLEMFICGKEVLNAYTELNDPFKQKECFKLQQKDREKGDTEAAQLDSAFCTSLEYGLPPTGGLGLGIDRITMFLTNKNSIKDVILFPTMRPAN
UniProt P9WPC5, whole entry: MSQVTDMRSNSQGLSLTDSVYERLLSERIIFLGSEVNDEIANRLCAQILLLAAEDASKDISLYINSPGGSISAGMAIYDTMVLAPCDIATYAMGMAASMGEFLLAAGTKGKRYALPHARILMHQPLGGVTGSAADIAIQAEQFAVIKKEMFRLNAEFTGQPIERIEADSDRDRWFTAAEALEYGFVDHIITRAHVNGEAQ
UniProt P9WPC3, whole entry partner: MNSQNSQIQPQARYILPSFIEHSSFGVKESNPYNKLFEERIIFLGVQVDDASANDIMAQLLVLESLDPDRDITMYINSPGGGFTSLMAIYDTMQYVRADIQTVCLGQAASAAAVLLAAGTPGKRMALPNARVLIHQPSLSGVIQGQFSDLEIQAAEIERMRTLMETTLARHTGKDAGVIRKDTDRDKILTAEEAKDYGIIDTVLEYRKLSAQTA

Measurements from “University of Dundee, Small-Polar-MMV Screening Library” (2021), ChEMBL document CHEMBL3988442.

A: 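Lysine-tRNA ligase, Plasmodium falciparum 3D7 (UniProt Q8IDJ8). Enzyme assay of the cytosolic lysyl-tRNA synthetase in 384-well plates, read by luminescence. Tested at 30 µM. Higher reads as stronger inhibition, judged from the few compounds that gave an IC50. Size under these conditions: about 69,000 compounds, about 49 of them at 50% or above in at least one test.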
B: 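Protease assay of ClpP1P2, read by the AMC dye that it sets free. Target: ClpP1P2, Mycobacterium tuberculosis (UniProt P9WPC5 and UniProt P9WPC3). Tested at 50 µM. Higher reads as stronger inhibition, judged from the few compounds that gave an IC50. Most other retested compounds had strongly negative values. About 69,000 compounds were tested under these conditions; 0.015% (about 10) showed 50% or more at least once.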

The filed quantity is “Percent Effect” (%).
The controls that fix the scale are not given in the record; negative values are as filed.
Compounds were drawn at random from those tested, without regard to their results.

| # | SMILES | A | B |
|---|---|---|---|
| 1 | `CCS(=O)(=O)N1CCC2(CC1)CN(Cc1ccccn1)C(=O)CO2` | -2.85% | -5.489% |
| 2 | `COCCC(=O)NCCn1nc(C2CCNC2)c2cccnc21` (stereo not shown) | 1.179% | 8.895% |
| 3 | `Cc1nn(CC(C)C)c(N(C)C)c1CNCCC(=O)NC(C)C` | 0.3888% | -0.6843% |
| 4 | `CCOCC(=O)N1C[C@H]2CC[C@@H]1CN(C(=O)c1ccncc1)C2` | 2.943% | -5.025% |
| 5 | `O=C(O)c1cc(S(=O)(=O)Nc2ccc(F)cc2F)cc2c1OCCO2` | 0.8847% | -34.01% |
| 6 | `CC(C)(C)Oc1ccncc1NCc1cscn1` | 1.109% | -3.365% |
| 7 | `CSc1ncccc1C(=O)N1C[C@H]2CC[C@@H]1CN(c1ncccn1)C2` | -1.204% | -5.407% |
| 8 | `CCc1cc(CN(C)C(=O)c2cnc3c(c2)nc(N)n3CC)on1` | 1.183% | -11.86% |
| 9 | `CSCc1ccc(CNCCN2CCOCC2)o1` | 4.006% | 8.545% |
| 10 | `CCCc1nnc(SCc2cc(=O)n3c4c(sc3n2)CCCC4)[nH]1` | 4.803% | -11.24% |
| 11 | `COCCN1C[C@H]2CN(C(=O)NCc3ccccc3)CCN2C1=O` | 7.987% | 2.39% |
| 12 | `COc1ccccc1Cc1nnc(SCCS(C)(=O)=O)o1` | 6.855% | 2.587% |
| 13 | `Cc1ccc(C(=O)N2CCCC(c3nncn3C)C2)c(C)c1` (stereo not shown) | 0.6231% | -38.14% |
| 14 | `CC(=O)N1CC(C)CN(Cc2ccon2)c2ccccc21` (stereo not shown) | 2.869% | -1.323% |
| 15 | `CCN(C)CC(=O)N1CCCC(c2nnc(CN3CCOCC3)n2C)C1` (stereo not shown) | 2.087% | 1.73% |
| 16 | `CCOC(=O)NCCNC(=O)c1cc2ccccc2nc1N1CCCC1` | 8.998% | 2.322% |
| 17 | `CCn1ccnc1CN1CCN(CCC(=O)NC2CCCCC2)CC1` | -0.5337% | -18.03% |
| 18 | `COc1ncccc1C(=O)NCC(C)Oc1cccnc1` (stereo not shown) | -0.2081% | -9.165% |
| 19 | `CCOC(C)c1nc(CN2CCN(c3ncc(C)cn3)CC2)cs1` (stereo not shown) | -0.4722% | -10.79% |
| 20 | `N#Cc1cccc(CN2C[C@@H](F)[C@@H](OCc3nc4ccccc4[nH]3)C2)c1` | 7.926% | -7.284% |
| 21 | `Cn1ccnc1N1CCN(C(=O)Cc2ccc(Cl)cc2)CC1` | 6.899% | 10.65% |
| 22 | `O=C(c1ccco1)N(CC(F)(F)F)C1CCCOC1` (stereo not shown) | -2.863% | 3.622% |
| 23 | `O=C(c1cscn1)N1CCCC2(CCN2Cc2cccc(F)c2)C1` (stereo not shown) | 3.938% | 2.834% |
| 24 | `CC1=Nc2c(c(O)nn2C2CCOCC2)C(c2cccnc2)S1` (stereo not shown) | 0.5434% | 0.377% |
| 25 | `CC(C)c1nn(C)c(N(C)C)c1CNCc1ccc2c(c1)OCO2` | 5.434% | -8.551% |
| 26 | `CC1CN(C(=O)NCCCn2cncn2)CCO1` (stereo not shown) | 6.876% | 8.681% |
| 27 | `Cc1cc(C)n(C2CCCN(C(=O)c3c[nH]c(=O)c(Cl)c3)C2)n1` (stereo not shown) | 6.629% | -6.989% |
| 28 | `O=C(c1cnccn1)N1C[C@@H]2CC[C@H](C1)N(S(=O)(=O)c1cccnc1)C2` | 3.325% | -8.676% |
| 29 | `CCCS(=O)(=O)N1Cc2ccnn2CC(c2nc(C)no2)C1` (stereo not shown) | 2.167% | -3.344% |
| 30 | `Cc1cccnc1N1CCC(c2nccn2Cc2cscn2)CC1` | 4.805% | -0.2129% |
| 31 | `CCN(CC)C(=O)[C@@H]1C[C@H](N)CN1C(=O)c1cc2c([nH]c1=O)CCC2` | 7.164% | -1.854% |
| 32 | `O=C(CN1CCOCC1)N1CCC(c2cc(N3CCCC3)ncn2)CC1` | -1.708% | -2.543% |
| 33 | `O=C(Nc1cccc(CN2CCOC2=O)c1)N1CCCC1` | 7.131% | -14.3% |
| 34 | `CC1CCCN(C(=O)CNC(=O)c2ccoc2)C1` (stereo not shown) | -3.671% | 20.59% |
| 35 | `CC(CN1CCCC1=O)NC(=O)Nc1ccccc1Cn1cccn1` (stereo not shown) | -0.7105% | 5.136% |
| 36 | `O=C1NCC2=C1C(c1ccc(O)cc1)Nc1ccccc1N2` (stereo not shown) | 2.981% | -11.46% |
| 37 | `CN(C)C(=O)C1CSCN1C(=O)CCc1ccco1` (stereo not shown) | 7.493% | -1.596% |
| 38 | `c1ccc(CN2CCC(NCCSc3cnn[nH]3)C2)cc1` (stereo not shown) | 7.749% | -16.45% |
| 39 | `CCOCCn1c(=O)n(CCC=C(C)C)c2cc(C(=O)O)cnc21` | -0.6615% | -4.31% |
| 40 | `CN(Cc1cc2n(n1)CCNC2)Cc1n[nH]c2c1CCCCC2` | -0.4581% | -8.984% |
| 41 | `Cc1ncoc1C(=O)N1CCc2[nH]nc(-c3ccc4c(c3)OCO4)c2C1` | 1.771% | -12.19% |
| 42 | `Cc1cnc(N2CCCC(c3ccccc3)C2)nc1-c1ncnn1C` (stereo not shown) | 0.7924% | -5.919% |
| 43 | `Cc1cnn(CCC(=O)N2CCN(c3ccc(C#N)cn3)CC2)c1` | 1.887% | 2.655% |

Some entries from above, unchanged:

SMILES,A,B
CSCc1ccc(CNCCN2CCOCC2)o1,4.006%,8.545%
CCOCCn1c(=O)n(CCC=C(C)C)c2cc(C(=O)O)cnc21,-0.6615%,-4.31%
O=C(c1cscn1)N1CCCC2(CCN2Cc2cccc(F)c2)C1 (stereo not shown),3.938%,2.834%
CCN(C)CC(=O)N1CCCC(c2nnc(CN3CCOCC3)n2C)C1 (stereo not shown),2.087%,1.73%
Cc1cc(C)n(C2CCCN(C(=O)c3c[nH]c(=O)c(Cl)c3)C2)n1 (stereo not shown),6.629%,-6.989%